According to patent US20150111251A1 (AbbVie / Abbott, published 2015):

B1: AB353 (antibody, V domains shown)
VH: EVQLVQSGSELKKPGASVKVSCKASGYTFTNYGMNWVRQAPGQGLEWMGWINTYTGEPTYADDFKGRFVFSLDTSVSTAYLQISSLKAEDTAVYYCARKFLTTVVVTDYAMDYWGQGTTVTVSS
VL: DIQMTQSPSSLSASVGDRVTITCRASQDISNYLNWYQQKPGKAPKLLIYYTSRLQSGVPSRFSGSGSGTDYTLTISSLQPEDFATYYCQQGNTLPPTFGQGTKLEIK
notes: Full-length humanized antibody made in HEK 293-6E; also called hMAK199VH.1/hMAK199VL.1b
B2: AB356 (antibody, V domains shown)
VH: B1 VH
VL: DIVMTQSPAFLSVTPGEKVTITCRASQDISNYLNWYQQKPDQAPKLLIYYTSRLQSGVPSRFSGSGSGTDYTFTISSLEAEDAATYYCQQGNTLPPTFGQGTKLEIK
notes: Full-length humanized antibody made in HEK 293-6E; also called hMAK199VH.1/hMAK199VL.2b
B3: AB369 (antibody, V domains shown)
VH: EVQLVQSGAEVKKPGASVKVSCKASGYTFTNYGMNWVRQAPGQGLEWMGWINTYTGEPTYADDFKGRVTMTTDTSTSTAYMELSSLRSEDTAVYYCARKFLTTVVVTDYAMDYWGQGTTVTVSS
VL: B1 VL with Y71F
notes: Full-length humanized antibody made in HEK 293-6E; also called hMAK199VH.2/hMAK199VL.1
B4: AB375 (antibody, V domains shown)
VH: B3 VH with V2I, V68F, M70F, T72L, Y95F
VL: B1 VL with Y71F
notes: Full-length humanized antibody made in HEK 293-6E; also called hMAK199VH.2a/hMAK199VL.1
B5: AB381 (antibody, V domains shown)
VH: B3 VH with V2I, M70F
VL: B1 VL with Y71F
notes: Full-length humanized antibody made in HEK 293-6E; also called hMAK199VH.2b/hMAK199VL.1
B6: AB371 (antibody, V domains shown)
VH: B3 VH
VL: B1 VL
notes: Full-length humanized antibody made in HEK 293-6E; also called hMAK199VH.2/hMAK199VL.1b
B7: AB383 (antibody, V domains shown)
VH: B3 VH with V2I, M70F
VL: B1 VL
notes: Full-length humanized antibody made in HEK 293-6E; also called hMAK199VH.2b/hMAK199VL.1b
B8: AB376 (antibody, V domains shown)
VH: B3 VH with V2I, V68F, M70F, T72L, Y95F
VL: B1 VL with A43T, P44V, Y87F
notes: Full-length humanized antibody made in HEK 293-6E; also called hMAK199VH.2a/hMAK199VL.1a
B9: AB382 (antibody, V domains shown)
VH: B3 VH with V2I, M70F
VL: B1 VL with A43T, P44V, Y87F
notes: Full-length humanized antibody made in HEK 293-6E; also called hMAK199VH.2b/hMAK199VL.1a
B10: AB370 (antibody, V domains shown)
VH: B3 VH
VL: B1 VL with A43T, P44V, Y87F
notes: Full-length humanized antibody made in HEK 293-6E; also called hMAK199VH.2/hMAK199VL.1a
B11: AB380 (antibody, V domains shown)
VH: B3 VH with V2I, V68F, M70F, T72L, Y95F
VL: B2 VL
notes: Full-length humanized antibody made in HEK 293-6E; also called hMAK199VH.2a/hMAK199VL.2b
B12: AB352 (antibody, V domains shown)
VH: B1 VH
VL: B1 VL with A43T, P44V, Y87F
notes: Full-length humanized antibody made in HEK 293-6E; also called hMAK199VH.1/hMAK199VL.1a
B13: AB366 (antibody, V domains shown)
VH: B1 VH with Y95F
VL: B2 VL with I2V, Y49K, Y71F
notes: Full-length humanized antibody made in HEK 293-6E; also called hMAK199VH.1b/hMAK199VL.2
B14: AB362 (antibody, V domains shown)
VH: B1 VH with V2I, Y95F
VL: B2 VL
notes: Full-length humanized antibody made in HEK 293-6E; also called hMAK199VH.1a/hMAK199VL.2b
B15: AB360 (antibody, V domains shown)
VH: B1 VH with V2I, Y95F
VL: B2 VL with I2V, Y49K, Y71F
notes: Full-length humanized antibody made in HEK 293-6E; also called hMAK199VH.1a/hMAK199VL.2
B16: AB359 (antibody, V domains shown)
VH: B1 VH with V2I, Y95F
VL: B1 VL
notes: Full-length humanized antibody made in HEK 293-6E; also called hMAK199VH.1a/hMAK199VL.1b
B17: AB357 (antibody, V domains shown)
VH: B1 VH with V2I, Y95F
VL: B1 VL with Y71F
notes: Full-length humanized antibody made in HEK 293-6E; also called hMAK199VH.1a/hMAK199VL.1
B18: AB358 (antibody, V domains shown)
VH: B1 VH with V2I, Y95F
VL: B1 VL with A43T, P44V, Y87F
notes: Full-length humanized antibody made in HEK 293-6E; also called hMAK199VH.1a/hMAK199VL.1a
B19: AB365 (antibody, V domains shown)
VH: B1 VH with Y95F
VL: B1 VL
notes: Full-length humanized antibody made in HEK 293-6E; also called hMAK199VH.1b/hMAK199VL.1b
B20: AB363 (antibody, V domains shown)
VH: B1 VH with Y95F
VL: B1 VL with Y71F
notes: Full-length humanized antibody made in HEK 293-6E; also called hMAK199VH.1b/hMAK199VL.1
B21: AB361 (antibody, V domains shown)
VH: B1 VH with V2I, Y95F
VL: B2 VL with A43T, P44V, Y87F
notes: Full-length humanized antibody made in HEK 293-6E; also called hMAK199VH.1a/hMAK199VL.2a
B22: AB364 (antibody, V domains shown)
VH: B1 VH with Y95F
VL: B1 VL with A43T, P44V, Y87F
notes: Full-length humanized antibody made in HEK 293-6E; also called hMAK199VH.1b/hMAK199VL.1a
B23: AB355 (antibody, V domains shown)
VH: B1 VH
VL: B2 VL with A43T, P44V, Y87F
notes: Full-length humanized antibody made in HEK 293-6E; also called hMAK199VH.1/hMAK199VL.2a
B24: AB354 (antibody, V domains shown)
VH: B1 VH
VL: B2 VL with I2V, Y49K, Y71F
notes: Full-length humanized antibody made in HEK 293-6E; also called hMAK199VH.1/hMAK199VL.2
B25: AB351 (antibody, V domains shown)
VH: B1 VH
VL: B1 VL with Y71F
notes: Full-length humanized antibody made in HEK 293-6E; also called hMAK199VH.1/hMAK199VL.1
B26: AB367 (antibody, V domains shown)
VH: B1 VH with Y95F
VL: B2 VL with A43T, P44V, Y87F
notes: Full-length humanized antibody made in HEK 293-6E; also called hMAK199VH.1b/hMAK199VL.2a
B27: AB377 (antibody, V domains shown)
VH: B3 VH with V2I, V68F, M70F, T72L, Y95F
VL: B1 VL
notes: Full-length humanized antibody made in HEK 293-6E; also called hMAK199VH.2a/hMAK199VL.1b
B28: AB368 (antibody, V domains shown)
VH: B1 VH with Y95F
VL: B2 VL
notes: Full-length humanized antibody made in HEK 293-6E; also called hMAK199VH.1b/hMAK199VL.2b
B29: AB372 (antibody, V domains shown)
VH: B3 VH
VL: B2 VL with I2V, Y49K, Y71F
notes: Full-length humanized antibody made in HEK 293-6E; also called hMAK199VH.2/hMAK199VL.2
B30: AB385 (antibody, V domains shown)
VH: B3 VH with V2I, M70F
VL: B2 VL with A43T, P44V, Y87F
notes: Full-length humanized antibody made in HEK 293-6E; also called hMAK199VH.2b/hMAK199VL.2a
B31: AB379 (antibody, V domains shown)
VH: B3 VH with V2I, V68F, M70F, T72L, Y95F
VL: B2 VL with A43T, P44V, Y87F
notes: Full-length humanized antibody made in HEK 293-6E; also called hMAK199VH.2a/hMAK199VL.2a
B32: AB373 (antibody, V domains shown)
VH: B3 VH
VL: B2 VL with A43T, P44V, Y87F
notes: Full-length humanized antibody made in HEK 293-6E; also called hMAK199VH.2/hMAK199VL.2a
B33: AB384 (antibody, V domains shown)
VH: B3 VH with V2I, M70F
VL: B2 VL with I2V, Y49K, Y71F
notes: Full-length humanized antibody made in HEK 293-6E; also called hMAK199VH.2b/hMAK199VL.2
B34: AB378 (antibody, V domains shown)
VH: B3 VH with V2I, V68F, M70F, T72L, Y95F
VL: B2 VL with I2V, Y49K, Y71F
notes: Full-length humanized antibody made in HEK 293-6E; also called hMAK199VH.2a/hMAK199VL.2
B35: AB386 (antibody, V domains shown)
VH: B3 VH with V2I, M70F
VL: B2 VL
notes: Full-length humanized antibody made in HEK 293-6E; also called hMAK199VH.2b/hMAK199VL.2b
B36: AB374 (antibody, V domains shown)
VH: B3 VH
VL: B2 VL
notes: Full-length humanized antibody made in HEK 293-6E; also called hMAK199VH.2/hMAK199VL.2b
B37: murine anti-human TNF-α monoclonal antibody MAK199 (antibody, V domains shown)
VH: QIQLVQSGPELKKPGETVMISCKASGYTFTNYGMNWVKQAPGKGLKWMGWINTYTGEPTYADDFKGRFAFSLETSASTAYLQINNLKNEDTATYFCARKFLTTVVVTDYAMDYWGQGTSVTVSS
VL: DIQMTQTTSSLSASLGDRVTISCRASQDISNYLNWYQQKPDGTVKLLIYYTSRLQSGVPSRFSGSGSGTDYSLTISNLEQEDIATYFCQQGNTLPPTFGVGTKLELK

molecular target: Recombinant Human TNF-α/TNFSF1A (human); experiment: SPR (BIACORE)

binding | Binder
binds | B1
binds | B2
binds | B3
binds | B4
binds | B5
binds | B6
binds | B7
binds | B8
binds | B9
binds | B10
binds | B11
binds | B12
binds | B13
binds | B14
binds | B15
binds | B16
binds | B17
binds | B18
binds | B19

binding | Binder
binds | B20
binds | B21
binds | B22
binds | B23
binds | B24
binds | B25
binds | B26
binds | B27
binds | B28
binds | B29
binds | B30
binds | B31
binds | B32
binds | B33
binds | B34
binds | B35
binds | B36
binds | B37

Residue numbers refer to the chain shown, from its start. Results are given in words; binding and its absence hold for the method and conditions named. Binding calls can cover weak binding; strength is not graded here.
